Test results taken from paper PMC9962927.
No constants are given. Whether binding was seen depends on the method and setting. Some results given as binding are weak or reduced against the parent protein; the word gives no strength.

Sequences of proteins named here, by UniProt entry; tags and fusion partners are left off. Residues count along the entry.
UniProt P13128, residues 39-526: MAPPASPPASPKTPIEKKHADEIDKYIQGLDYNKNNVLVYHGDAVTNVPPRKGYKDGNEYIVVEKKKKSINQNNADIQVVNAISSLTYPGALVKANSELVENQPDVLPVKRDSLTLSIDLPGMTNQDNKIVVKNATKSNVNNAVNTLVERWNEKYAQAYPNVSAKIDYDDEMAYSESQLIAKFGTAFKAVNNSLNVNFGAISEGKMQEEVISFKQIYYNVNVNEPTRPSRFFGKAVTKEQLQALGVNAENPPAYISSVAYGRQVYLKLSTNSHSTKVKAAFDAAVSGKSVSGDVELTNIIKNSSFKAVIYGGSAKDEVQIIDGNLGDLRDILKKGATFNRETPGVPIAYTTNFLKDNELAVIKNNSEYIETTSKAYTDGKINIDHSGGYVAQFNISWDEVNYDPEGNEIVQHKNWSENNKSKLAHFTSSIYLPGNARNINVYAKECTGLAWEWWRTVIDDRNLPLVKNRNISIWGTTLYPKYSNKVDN

Molecular target: listeriolysin O (Listeria monocytogenes) (UniProt P13128)
Test: in vitro oligomerisation, SDS-PAGE and Western blot; purified LLO pre-incubated with or without the indicated concentrations of CT extract at 37 °C for 20 min; oligomerisation induced in vitro as in ref. 46; high molecular weight complexes detected by Western blot; both purified

## listeriolysin O (from UniProt P13128 39-526)
  binding: binds
